# PubChem BioAssay (EPA / NIEHS)
# Protein sequences, listed by entry. Tags and fused reporters are not part of them.
# UniProt P05979, whole entry, looked up: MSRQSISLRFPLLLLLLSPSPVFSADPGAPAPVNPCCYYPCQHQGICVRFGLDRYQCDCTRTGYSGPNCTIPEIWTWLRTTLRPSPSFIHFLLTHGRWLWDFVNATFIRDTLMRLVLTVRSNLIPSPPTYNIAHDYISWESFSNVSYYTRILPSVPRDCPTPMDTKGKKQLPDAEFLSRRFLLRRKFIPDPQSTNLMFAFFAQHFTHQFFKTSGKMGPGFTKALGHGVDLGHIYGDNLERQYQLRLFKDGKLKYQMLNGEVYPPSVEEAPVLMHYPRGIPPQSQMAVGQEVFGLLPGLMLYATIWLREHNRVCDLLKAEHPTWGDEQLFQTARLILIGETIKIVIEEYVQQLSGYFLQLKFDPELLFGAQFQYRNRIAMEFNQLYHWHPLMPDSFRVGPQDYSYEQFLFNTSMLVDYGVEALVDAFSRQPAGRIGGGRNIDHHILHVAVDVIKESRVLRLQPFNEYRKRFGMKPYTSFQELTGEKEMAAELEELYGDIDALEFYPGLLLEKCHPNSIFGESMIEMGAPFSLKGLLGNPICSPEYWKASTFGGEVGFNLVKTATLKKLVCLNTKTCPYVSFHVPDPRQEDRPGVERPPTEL
# UniProt Q95136, whole entry, looked up: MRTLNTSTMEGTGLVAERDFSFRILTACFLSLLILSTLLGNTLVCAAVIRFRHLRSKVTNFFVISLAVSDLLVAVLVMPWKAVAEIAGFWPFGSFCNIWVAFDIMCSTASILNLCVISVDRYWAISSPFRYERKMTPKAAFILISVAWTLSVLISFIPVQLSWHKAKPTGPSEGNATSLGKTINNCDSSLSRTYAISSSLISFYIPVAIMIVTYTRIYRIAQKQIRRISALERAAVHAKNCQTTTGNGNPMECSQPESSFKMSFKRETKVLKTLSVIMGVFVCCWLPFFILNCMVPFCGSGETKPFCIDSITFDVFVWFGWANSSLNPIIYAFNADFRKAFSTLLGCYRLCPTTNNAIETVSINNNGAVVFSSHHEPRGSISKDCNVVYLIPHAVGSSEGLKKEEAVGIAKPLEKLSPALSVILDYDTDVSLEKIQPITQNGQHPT
# Inconclusive means that the source gave no clear call. Such entries were picked first, then a sample of the others. Where the call is inconclusive, the potency comes from a doubtful curve fit. The source made the active and inactive calls. Rule for the calls: active = hit-call score of the fitted dose curve at least 0.9, where 1 is the maximum; inconclusive = response in the unintended direction; inactive = score below 0.9.
# Target: sheep Cyclooxygenase-1 (Cox1), PTGS1 (gene 443551) (UniProt P05979)
# Assay: NVS_ENZ_oCOX1: NovaScreen (NVS) Enzymatic Assay for sheep Cyclooxygenase-1 (Cox1) (AID 2283239);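 note: actives reduce cyclooxygenase activity so potencies are for inhibitors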
# Method in brief: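 Colorimetric enzyme readout using sheep seminal-vesicle cyclooxygenase-1, measured 0.66 h post-dosing. Single-concentration duplicates at 25 uM first, then concentration series for actives, with DMSO as baseline and plate controls.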
SMILES,AC50,outcome
CCCCC(CC)COC(=O)c1c(Br)c(Br)c(Br)c(Br)c1C(=O)OCC(CC)CCCC (stereo not given),inconclusive: 18.4 µM,
N#CCCC(Br)(C#N)CBr (stereo not given),active: 4.04 µM,
CCCCOC(=O)c1ccccc1C(=O)OCCCC,,inactive
Cc1[nH]c(=O)n(C(C)(C)C)c(=O)c1Cl,inconclusive: 4.36 µM,
CC(C)Nc1ccc(Nc2ccccc2)cc1,inconclusive: 25 µM,
CC(C)(C)c1ccc(CSc2cnn(C(C)(C)C)c(=O)c2Cl)cc1,,inactive
C=C(Cl)Cl,inconclusive: 6.15 µM,
c1ccc(Nc2ccc3ccccc3c2)cc1,,inactive
C#CCN1C(=O)COc2cc(F)c(N3C(=O)C4=C(CCCC4)C3=O)cc21,active: 1.11 µM,
O=c1ssc(Cl)c1Cl,inconclusive: 44 µM,inactive
Clc1ccc(C2(Cn3cncn3)CC(Br)CO2)c(Cl)c1 (stereo not given),,inactive
O=C(CCl)NCO,inconclusive: 0.454 µM,
Cl/C=C\C[N+]12CN3CN(CN(C3)C1)C2,active: 5.46 µM,
ClC(Cl)=C(c1ccc(Cl)cc1)c1ccc(Cl)cc1,,inactive
C#CCO,inconclusive: 27.9 µM,
Oc1c(Br)cc(Br)cc1Br,inconclusive: 0.33 µM,
COC(=O)c1ccccc1CS(=O)(=O)NC(=O)Nc1nc(OC)cc(OC)n1,inconclusive: 1.96 µM,
CCCCCCCCCc1ccc(O)cc1,,inactive
C=C(C)C(=O)OCC(CC)CCCC (stereo not given),inconclusive: 19.6 µM,
CO/C=C(/C(=O)OC)c1ccccc1COc1cccc(C(F)(F)F)n1,inconclusive: 25 µM,
c1ccc(-c2cccc(-c3ccccc3)c2)cc1,inconclusive: 25 µM,
O=c1oc2ccccc2c(O)c1C(CC(O)c1ccc(-c2ccc(Br)cc2)cc1)c1ccccc1 (stereo not given),active: 1.31 µM,
CC1(C)CN=C(NN=C(/C=C/c2ccc(C(F)(F)F)cc2)/C=C/c2ccc(C(F)(F)F)cc2)NC1,active: 5.74 µM,

# Record cards (already shown):
# `O=C(CCl)NCO` as listed: AC50: inconclusive: 0.454 µM
# `Clc1ccc(C2(Cn3cncn3)CC(Br)CO2)c(Cl)c1` (stereo not given) as listed: outcome: inactive

# Tested on: bovine Angiotensin II Receptor Type 2 (AT2), gene 407157
# Assay: NVS_GPCR_bAT2: NovaScreen (NVS) G Protein-Coupled Receptor Assay for bovine Angiotensin II Receptor Type 2 (AT2) (AID 2283240)
# Method in brief: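 Radioligand displacement on bovine cerebellar membranes, 1 hour incubation, filter-based scintillation counting; loss of signal vs DMSO. Duplicate single-point screen at 25 uM, then concentration-response to 50 uM maximum.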
SMILES,AC50,outcome
CCOC(=O)C(C)OC(=O)c1cc(Oc2ccc(C(F)(F)F)cc2Cl)ccc1[N+](=O)[O-] (stereo not given),inconclusive: 6.82 µM,
N#Cc1cccnc1,,inactive
O=C(Nc1ccc2[nH]ccc2c1)c1cc2cc(F)ccc2n1Cc1cccc(F)c1,,inactive

# Target: bovine Dopamine Receptor (DR), Non-selective Binding, DRD1 (gene 281125) (UniProt Q95136)
# Assay: NVS_GPCR_bDR_NonSelective: NovaScreen (NVS) G Protein-Coupled Receptor Assay for bovine Dopamine Receptor (DR), Non-selective Binding (AID 2283241)
# Method in brief: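 Bovine striatal membranes; radioligand displacement read by filtration and scintillation counting 1 h after dosing, loss of signal vs DMSO. Screened in duplicate at 25 uM, then concentration-response for hits.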
row,SMILES,AC50
1,C[C@H]1[C@H](c2ccc(Cl)cc2)SC(=O)N1C(=O)NC1CCCCC1,inconclusive: 25 µM
2,CCOC(=O)C(C)OC(=O)c1cc(Oc2ccc(C(F)(F)F)cc2Cl)ccc1[N+](=O)[O-] (stereo not given),inconclusive: 25 µM
3,O=C(O)C1(c2ccc3c(c2)OC[C@H](Cc2ccc(-c4ccccc4)cc2)[C@H]3O)CCCC1,inconclusive: 0.0597 µM
